Reference: PubChem BioAssay AID485349 (National Center for Advancing Translational Sciences (NCATS), 2010)
About 620 (0.19%) of roughly 320,000 compounds were called active. The shares of active, inactive and inconclusive entries below differ from those in the screen. Calls follow the shape of the dose curve; as a rule, active = well fitted activation curve with a large enough effect; inconclusive = small, poorly fitted or top-dose-only effect; inactive = no such curve, though single readings can be large or run the other way. A potency beside an inconclusive call is a rough fit, not a confirmed value.

test: qHTS Assay for Identifying a Potential Treatment of Ataxia-Telangiectasia; conditions: […] A-T fibroblasts, KAP-1 phosphorylation AlphaLISA, neocarzinostatin DNA damage 30 min before lysis; series mostly up to 57.5 µM; activation: at the top concentration; also: nearly all actives have a fitted effect of over 45% in size; as to activation: % of control where 0% means no effect
Procedure, shortened: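 ATM-like activity read as KAP-1 phosphorylation via AlphaLISA donor/acceptor antibody pairs after lysis and 6 hr at 25C. Cells were ATM-null patient fibroblasts ([…], hTERT), dosed 60 min, then exposed to the DSB inducer NCS for 30 min.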
Potency is read from the fitted curve at half-maximal effect.

| SMILES | Potency | activation |
| --- | --- | --- |
| CN(Cc1ccccc1F)c1ccc(S(=O)(=O)N2CCCC2)cn1 | inconclusive: 3.16 µM [activator, partial curve] |  |
| NC1=NC[C@H](Cc2ccccc2)N1CCc1cccc(F)c1 | inconclusive: 31.6 µM [activator, partial curve] |  |
| O=c1oc2cc(O)ccc2cc1-c1nc2c(s1)CCc1ccccc1-2 | active: 17.8 µM |  |
| O=C(O)CSc1nnc(C2COc3ccccc3O2)n1-c1ccccc1 (configuration not stated) | inconclusive: 0.708 µM [activator, partial curve, poor fit] |  |
| Cc1ccc(-c2cn3nc(-c4ccccc4)c(-c4ccccc4)nc3n2)cc1 | active: 28.2 µM |  |
| COc1nnc(-c2ccc(N3CCCCC3)c(NC(C)=O)c2)c2ccccc12 |  | inactive: 1.22% |
| COCCNC(=S)N1CCN(C)CC1 | inconclusive: 0.708 µM [activator, full curve, poor fit] |  |
| Nc1ccc(O)cc1C(=O)OCC(=O)C12CC3CC(CC(C3)C1)C2 |  | inactive: -2.21% |
| COc1ccc(/C=N/Nc2nn3cnnc3c3ccccc23)cc1 | active: 44.7 µM |  |
| CCC(=O)c1ccc(OC(C)C(=O)NC2(C#N)CCCCC2)cc1 (configuration not stated) | inconclusive: 25.1 µM [activator, partial curve] |  |
| CC1=C(C(=O)OCc2ccccc2)C(c2ccc(-c3ccccc3)cc2)NC(=O)N1CCCCCC(=O)O (configuration not stated) | inconclusive: 12.6 µM [activator, partial curve] |  |
| CC(C)c1nc2sc3c(=S)nc[nH]c3c2c2c1CCC2 |  | inactive: -30.8% |
| COc1ccc(COC(=O)C2CCN(C(=O)c3ccc(Cl)cc3)CC2)cc1F | inconclusive: 6.31 µM [activator, single point] |  |
| CN(C)CCCNCC(=O)c1c(-c2ccccc2)n(C)c2ccccc12 | inconclusive: 0.708 µM [activator, partial curve, poor fit] |  |
| Cc1cc(-c2csc(Nc3ccccn3)n2)ccc1F |  | inactive: 6.19% |
| Cn1c(Sc2ccccc2Cl)c(C=O)c2ccccc21 | inconclusive: 31.6 µM [activator, single point] |  |
| COc1ccc(C(C)NC(=S)NCc2ccc(F)cc2)cc1 (configuration not stated) | inconclusive: 3.55 µM [activator, full curve, poor fit] |  |
| CCN1C(c2ccccc2)C(C)C(=O)C(C)C1c1ccccc1 (configuration not stated) | inconclusive: 39.8 µM [activator, single point] |  |
| COc1ccc(Cl)cc1NC(=O)C[n+]1cccc(C)c1 | inconclusive: 2.82 µM [activator, full curve, poor fit] |  |
| O=C(Nc1cc(Cl)ccc1-n1cncn1)c1ccc([N+](=O)[O-])s1 | inconclusive: 15.8 µM [activator, single point] |  |
| Cc1ccc(Oc2cnc3ccccc3n2)cc1 | inconclusive: 17.8 µM [activator, partial curve] |  |
| COc1ccc(-c2sc3ccccc3c2C#CC2(O)CCCCC2)cc1 | active: 31.6 µM |  |
| C=CCNc1nc(N)c([N+](=O)[O-])c(Nc2cccc(Cl)c2)n1 | inconclusive: 8.91 µM [activator, single point] |  |
| CC(=O)N1c2c(ccc3ccccc23)C(C)CC12CCCCC2 (configuration not stated) | inconclusive: 28.2 µM [activator, single point] |  |

| SMILES | Potency | activation |
| --- | --- | --- |
| Cc1[nH]c(=O)c(C#N)c(C)c1Br | inconclusive: 39.8 µM [activator, partial curve] |  |
| Cc1ccc(S(=O)(=O)NC(CC(=O)O)c2ccccc2)c(C)c1 (configuration not stated) | inconclusive: 5.62 µM [activator, partial curve] |  |
| Cn1cnc2cc(NCc3ccc(Cl)cc3)ccc21 |  | inactive: -0.195% |
| c1cc(SC2CCCCC2)cc(-c2nc3cnccn3c2NC2CCCCC2)c1 | inconclusive: 28.2 µM [activator, partial curve] |  |
| CN1/C(=C\C(=O)CSc2nnc(N)s2)C(C)(C)c2ccccc21 |  | inactive: 4.66% |
| CCc1ccc2c(c1)C(=O)C[C@]1(CCC[C@H](C)C1)O2 | inconclusive: 39.8 µM [activator, single point] |  |
| NC(=O)c1ccc(-n2c(CCC(=O)O)ccc2-c2cccs2)cc1 | inconclusive: 39.8 µM [activator, single point] |  |
| CNC(=S)N/N=C/c1ccc2c(c1)OCCO2 | active: 3.55 µM |  |
| C=CCNC(=O)C1=NN(c2c(F)c(F)cc(F)c2F)C(=O)CC1 | active: 7.08 µM |  |
| CCOC(=O)C1=C(N)c2ccccc2CC1C1CCCC1 (configuration not stated) | inconclusive: 35.5 µM [activator, single point] |  |
| O=C(Cc1c(Cl)cccc1Cl)NC1=NCCS1 | inconclusive: 0.708 µM [activator, full curve, poor fit] |  |
| CCN(CC(=O)NCc1cccs1)C(=O)CCC(=O)c1ccc(C)cc1 |  | inactive: -1.11% |
| O=C1C(NS(=O)(=O)c2cccs2)=C(N2CCOCC2)C(=O)c2ccccc21 | active: 7.08 µM |  |
| COc1cc(C2Nc3ccccc3C(=O)N2NS(C)(=O)=O)ccc1O (configuration not stated) | inconclusive: 39.8 µM [activator, partial curve, poor fit] |  |
| COc1ccc(-c2sc3ccc(OC)cc3c2C#Cc2cncn2C)cc1 | active: 28.2 µM |  |
| COc1ccccc1N1CCN(C2CCCN(C(=O)CCc3cnccn3)C2)CC1 (configuration not stated) | inconclusive: 4.47 µM [activator, single point] |  |
| CC(=O)c1sc2nc(-c3ccc(C)cc3)c3c(c2c1N)CCCC3 | inconclusive: 25.1 µM [activator, single point] |  |
| Clc1ccccc1COc1ccccc1-c1nnco1 |  | inactive: 6.99% |
| CC(=O)Nc1cccc(C(=O)/C=C/c2ccc(C)cc2)c1 | inconclusive: 25.1 µM [activator, partial curve] |  |
| C=CCN(CC=C)CCOc1cccc2ccccc12 | inconclusive: 39.8 µM [activator, single point] |  |
| CCN1C(=O)CSC1=NC1C2CC3CC(C2)CC1C3 (configuration not stated) | inconclusive: 39.8 µM [activator, single point] |  |
| Nc1nc(SCc2ccc(Br)cc2)[nH]c(=O)c1-c1ccccc1 | inconclusive: 6.31 µM [activator, single point] |  |
| COc1cc2c(C(=O)O)c(C)n(C)c2c2ccccc12 | inconclusive: 12.6 µM [activator, partial curve] |  |
| C=CCC(NCc1ccccc1)c1ccc(Cl)cc1 (configuration not stated) | inconclusive: 39.8 µM [activator, single point] |  |

In a second layout: entries from further up.
SMILES	Potency	activation
CC1=C(C(=O)OCc2ccccc2)C(c2ccc(-c3ccccc3)cc2)NC(=O)N1CCCCCC(=O)O (configuration not stated)	inconclusive: 12.6 µM [activator, partial curve]	
CCN1C(c2ccccc2)C(C)C(=O)C(C)C1c1ccccc1 (configuration not stated)	inconclusive: 39.8 µM [activator, single point]	
COc1ccc(Cl)cc1NC(=O)C[n+]1cccc(C)c1	inconclusive: 2.82 µM [activator, full curve, poor fit]	
Cn1cnc2cc(NCc3ccc(Cl)cc3)ccc21		inactive: -0.195%
c1cc(SC2CCCCC2)cc(-c2nc3cnccn3c2NC2CCCCC2)c1	inconclusive: 28.2 µM [activator, partial curve]	
COc1ccc(-c2sc3ccc(OC)cc3c2C#Cc2cncn2C)cc1	active: 28.2 µM	

Remaining list, next part

| SMILES | Potency | activation |
| --- | --- | --- |
| CN(c1ccccc1C(=O)Nc1ccccc1C(=O)NCc1ccco1)S(C)(=O)=O | inconclusive: 7.08 µM [activator, single point] |  |
| CCCCn1c(N)c(Br)c(=O)[nH]c1=O | inconclusive: 39.8 µM [activator, single point] |  |
| Nc1nccnc1C(=O)OCC(=O)c1ccc[nH]1 |  | inactive: -1.69% |
| O=C(/C=C/c1ccccc1Cl)OCC(=O)N1CCCC1 | inconclusive: 31.6 µM [activator, single point] |  |
| Cc1ccc(C(c2nnnn2CCc2ccccc2)N2CCSCC2)cc1 (configuration not stated) | inconclusive: 1.58 µM [activator, partial curve] |  |
| Cc1ccccc1C1=Nn2c(nnc2-c2ccco2)SC1 |  | inactive: -26.9% |
| CCC(C)(C)NC(=O)CCCSc1nc2ccccc2s1 | inconclusive: 11.2 µM [activator, partial curve] |  |
| NC(=O)c1ccc(Cl)c2ccccc12 | inconclusive: 1.26 µM [activator, full curve, poor fit] |  |
| CC1(C)Cc2c(c(N3CCOCC3)nc3sc(C(N)=O)c(N)c23)CO1 | active: 22.4 µM |  |
| COc1ccc(C2CC(c3cccs3)=NN2c2nc(-c3ccccc3)cs2)cc1OC (configuration not stated) | inconclusive: 25.1 µM [activator, partial curve] |  |
| O=[N+]([O-])c1ccc(-n2cc(-c3ccccc3)nn2)cc1 |  | inactive: -4.35% |
| C=CCSc1nc2c(c(=O)[nH]1)C(c1ccccc1)C(C#N)=C(N)O2 (configuration not stated) | inconclusive: 39.8 µM [activator, single point] |  |
| O=C(O)/C=C/C(=O)NNc1ncnc2ccccc12 | inconclusive: 3.16 µM [activator, partial curve] |  |
| Cc1cccc(NC(=O)c2ccccc2NC(=O)c2ccccc2)n1 | inconclusive: 2.82 µM [activator, full curve, poor fit] |  |
| Cc1cc(NC(=O)COc2ccccc2)n(-c2ccccc2)n1 | inconclusive: 39.8 µM [activator, single point] |  |
| COC(=O)[C@@H]1C[C@@]2(O)[C@@H](O)[C@@H](O)[C@@H](O)C[C@H]2N1Cc1ccc(C)s1 | inconclusive: 39.8 µM [activator, single point] |  |
| O=C(Nc1cc(S(=O)(=O)N2CCOCC2)ccc1Cl)c1cc(=O)c2ccccc2o1 | inconclusive: 10 µM [activator, partial curve] |  |
| COc1ccc(S(=O)(=O)N2CCCCCC2)cc1N(C)S(=O)(=O)c1ccc(C)cc1 | inconclusive: 3.55 µM [activator, single point] |  |
| S=c1[nH]nc(Nc2ccc(Cl)cc2)s1 |  | inactive: -7.88% |
| CCOc1ccc(NC2=NCC(=O)N2Cc2cccs2)cc1 | inconclusive: 7.08 µM [activator, partial curve] |  |
| CC(=O)Nc1ccc(C2=NN(c3ccccc3)C(c3cccs3)C2)cc1 (configuration not stated) | active: 25.1 µM |  |
| CC1CCC/C=C/C(=O)c2c(O)cc(O)cc2CC(=O)O1 (configuration not stated) | inconclusive: 39.8 µM [activator, single point] |  |
| CC(C)(C)n1nc2c(c1NC(=O)Cc1cccc3ccccc13)CS(=O)C2 (configuration not stated) | inconclusive: 35.5 µM [activator, single point] |  |
| COc1ccc(C(=O)/C(=C\c2ccco2)N2C=CC=CC2=C(C#N)C#N)cc1 |  | inactive: -4.5% |
